The list shows a part of the results.

Amino acid sequences for entries named in this document (tags omitted). A change or cut given only in a name is not applied to a line headed by its entry.
UniProt Q13573: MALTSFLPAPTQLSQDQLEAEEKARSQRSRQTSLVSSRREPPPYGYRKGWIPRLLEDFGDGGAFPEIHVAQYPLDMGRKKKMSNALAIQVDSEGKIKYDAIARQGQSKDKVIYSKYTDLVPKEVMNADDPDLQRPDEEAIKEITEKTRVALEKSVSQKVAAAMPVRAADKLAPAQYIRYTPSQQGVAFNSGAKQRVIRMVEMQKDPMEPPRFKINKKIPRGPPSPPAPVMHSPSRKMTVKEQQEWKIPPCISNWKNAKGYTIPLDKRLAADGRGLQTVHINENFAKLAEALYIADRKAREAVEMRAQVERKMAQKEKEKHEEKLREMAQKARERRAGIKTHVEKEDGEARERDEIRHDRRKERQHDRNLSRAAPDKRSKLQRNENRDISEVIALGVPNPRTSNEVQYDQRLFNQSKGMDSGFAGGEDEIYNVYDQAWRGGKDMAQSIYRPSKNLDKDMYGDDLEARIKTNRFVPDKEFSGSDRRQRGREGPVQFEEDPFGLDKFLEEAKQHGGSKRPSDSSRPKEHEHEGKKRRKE
UniProt O95347, whole entry, looked up: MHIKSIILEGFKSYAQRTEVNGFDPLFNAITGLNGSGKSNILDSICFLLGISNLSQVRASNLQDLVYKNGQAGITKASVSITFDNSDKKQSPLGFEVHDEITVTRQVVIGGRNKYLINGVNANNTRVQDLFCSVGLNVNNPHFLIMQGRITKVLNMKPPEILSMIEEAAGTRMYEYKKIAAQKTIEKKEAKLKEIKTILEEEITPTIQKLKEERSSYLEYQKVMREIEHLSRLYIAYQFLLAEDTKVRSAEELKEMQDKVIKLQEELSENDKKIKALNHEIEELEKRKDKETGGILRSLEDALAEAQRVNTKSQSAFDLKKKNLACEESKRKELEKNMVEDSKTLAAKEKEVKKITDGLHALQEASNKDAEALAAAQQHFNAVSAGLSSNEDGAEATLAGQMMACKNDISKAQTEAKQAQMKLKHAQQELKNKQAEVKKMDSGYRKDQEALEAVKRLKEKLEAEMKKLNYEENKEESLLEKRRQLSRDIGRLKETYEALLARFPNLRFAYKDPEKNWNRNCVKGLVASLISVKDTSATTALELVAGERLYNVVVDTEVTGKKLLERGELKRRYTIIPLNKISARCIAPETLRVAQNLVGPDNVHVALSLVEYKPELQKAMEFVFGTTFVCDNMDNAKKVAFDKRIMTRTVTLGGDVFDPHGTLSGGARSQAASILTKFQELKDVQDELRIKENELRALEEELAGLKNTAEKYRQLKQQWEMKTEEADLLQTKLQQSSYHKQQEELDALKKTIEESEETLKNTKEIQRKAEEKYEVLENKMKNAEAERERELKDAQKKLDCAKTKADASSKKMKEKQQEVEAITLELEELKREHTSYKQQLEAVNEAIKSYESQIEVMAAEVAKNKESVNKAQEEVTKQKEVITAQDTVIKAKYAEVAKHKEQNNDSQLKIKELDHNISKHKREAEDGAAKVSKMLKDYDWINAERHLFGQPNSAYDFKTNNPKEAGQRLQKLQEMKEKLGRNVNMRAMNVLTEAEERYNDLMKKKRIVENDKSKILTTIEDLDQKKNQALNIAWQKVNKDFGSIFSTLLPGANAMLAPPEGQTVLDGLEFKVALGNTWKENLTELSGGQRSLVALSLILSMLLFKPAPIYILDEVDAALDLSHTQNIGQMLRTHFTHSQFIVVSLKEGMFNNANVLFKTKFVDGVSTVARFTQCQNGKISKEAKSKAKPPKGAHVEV
UniProt Q9UPR3: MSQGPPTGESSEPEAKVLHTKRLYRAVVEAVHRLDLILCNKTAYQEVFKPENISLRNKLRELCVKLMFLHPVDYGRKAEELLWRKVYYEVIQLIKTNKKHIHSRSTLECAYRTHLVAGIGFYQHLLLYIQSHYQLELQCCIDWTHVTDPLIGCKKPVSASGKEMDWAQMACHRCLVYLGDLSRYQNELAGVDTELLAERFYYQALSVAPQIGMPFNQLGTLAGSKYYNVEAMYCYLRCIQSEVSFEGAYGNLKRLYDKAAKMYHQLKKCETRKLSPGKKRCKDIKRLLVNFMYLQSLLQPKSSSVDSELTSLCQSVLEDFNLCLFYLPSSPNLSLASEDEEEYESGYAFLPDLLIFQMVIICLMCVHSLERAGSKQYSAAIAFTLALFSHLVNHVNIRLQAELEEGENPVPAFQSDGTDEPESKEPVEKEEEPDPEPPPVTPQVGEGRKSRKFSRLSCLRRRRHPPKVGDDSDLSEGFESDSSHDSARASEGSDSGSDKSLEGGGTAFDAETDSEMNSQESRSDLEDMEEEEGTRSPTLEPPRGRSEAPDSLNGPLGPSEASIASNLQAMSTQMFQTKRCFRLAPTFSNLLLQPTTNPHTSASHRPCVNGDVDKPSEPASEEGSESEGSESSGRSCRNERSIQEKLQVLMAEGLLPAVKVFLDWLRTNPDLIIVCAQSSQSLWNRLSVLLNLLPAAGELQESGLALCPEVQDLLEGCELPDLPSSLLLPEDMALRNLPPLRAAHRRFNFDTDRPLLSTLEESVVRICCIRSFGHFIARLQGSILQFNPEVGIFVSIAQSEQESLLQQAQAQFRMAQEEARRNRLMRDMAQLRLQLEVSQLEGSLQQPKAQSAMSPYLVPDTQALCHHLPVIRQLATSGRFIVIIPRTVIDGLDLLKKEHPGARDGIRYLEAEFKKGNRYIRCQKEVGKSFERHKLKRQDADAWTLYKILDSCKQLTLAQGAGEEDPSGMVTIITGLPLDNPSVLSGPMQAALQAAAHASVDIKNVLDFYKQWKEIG
UniProt P52788: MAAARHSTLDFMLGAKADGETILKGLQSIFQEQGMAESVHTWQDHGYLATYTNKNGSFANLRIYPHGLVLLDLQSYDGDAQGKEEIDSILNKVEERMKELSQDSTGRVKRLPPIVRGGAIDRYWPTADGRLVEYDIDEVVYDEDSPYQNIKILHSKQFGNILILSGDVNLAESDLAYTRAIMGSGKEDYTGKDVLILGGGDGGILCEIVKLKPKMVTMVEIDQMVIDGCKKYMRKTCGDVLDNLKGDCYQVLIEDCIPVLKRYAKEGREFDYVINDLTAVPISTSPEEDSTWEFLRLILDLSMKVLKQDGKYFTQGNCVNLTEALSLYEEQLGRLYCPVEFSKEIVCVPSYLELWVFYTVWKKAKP
UniProt O95295: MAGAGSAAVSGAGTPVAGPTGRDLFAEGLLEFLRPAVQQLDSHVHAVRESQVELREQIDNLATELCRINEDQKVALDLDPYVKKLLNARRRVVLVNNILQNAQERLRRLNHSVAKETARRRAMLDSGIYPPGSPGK
UniProt Q9BT81: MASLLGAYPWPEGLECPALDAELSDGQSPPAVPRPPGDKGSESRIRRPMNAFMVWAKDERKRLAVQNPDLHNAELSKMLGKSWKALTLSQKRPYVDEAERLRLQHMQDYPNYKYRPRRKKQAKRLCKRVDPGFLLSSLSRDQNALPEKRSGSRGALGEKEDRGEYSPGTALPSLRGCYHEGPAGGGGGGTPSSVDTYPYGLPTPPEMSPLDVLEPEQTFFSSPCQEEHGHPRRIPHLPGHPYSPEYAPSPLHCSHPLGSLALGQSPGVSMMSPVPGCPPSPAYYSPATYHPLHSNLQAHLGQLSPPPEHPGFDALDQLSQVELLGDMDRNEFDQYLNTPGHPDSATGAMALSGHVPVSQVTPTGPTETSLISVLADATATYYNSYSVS
UniProt Q92925, whole entry, looked up: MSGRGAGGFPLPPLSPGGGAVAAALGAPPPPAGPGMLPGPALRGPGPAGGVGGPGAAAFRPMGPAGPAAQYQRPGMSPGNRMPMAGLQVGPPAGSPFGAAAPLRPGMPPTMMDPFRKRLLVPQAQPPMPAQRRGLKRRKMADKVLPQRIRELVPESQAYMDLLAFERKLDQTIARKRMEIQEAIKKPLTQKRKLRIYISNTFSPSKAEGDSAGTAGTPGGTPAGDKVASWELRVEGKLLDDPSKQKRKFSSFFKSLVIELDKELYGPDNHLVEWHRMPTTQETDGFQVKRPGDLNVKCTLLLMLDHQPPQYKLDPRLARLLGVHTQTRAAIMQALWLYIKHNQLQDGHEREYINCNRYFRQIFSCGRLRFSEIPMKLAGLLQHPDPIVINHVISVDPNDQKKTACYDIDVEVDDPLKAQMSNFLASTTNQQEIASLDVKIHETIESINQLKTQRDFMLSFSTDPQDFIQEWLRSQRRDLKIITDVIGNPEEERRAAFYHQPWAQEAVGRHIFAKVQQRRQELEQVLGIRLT
UniProt P09486: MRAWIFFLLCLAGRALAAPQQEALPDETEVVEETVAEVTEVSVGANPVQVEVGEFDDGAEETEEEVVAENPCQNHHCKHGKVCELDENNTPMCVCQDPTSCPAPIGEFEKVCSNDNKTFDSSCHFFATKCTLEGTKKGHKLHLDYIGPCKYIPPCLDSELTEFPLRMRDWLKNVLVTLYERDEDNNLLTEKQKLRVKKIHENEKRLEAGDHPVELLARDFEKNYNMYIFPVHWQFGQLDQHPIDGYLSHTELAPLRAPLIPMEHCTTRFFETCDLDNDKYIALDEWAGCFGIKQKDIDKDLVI
UniProt O95149, whole entry, looked up: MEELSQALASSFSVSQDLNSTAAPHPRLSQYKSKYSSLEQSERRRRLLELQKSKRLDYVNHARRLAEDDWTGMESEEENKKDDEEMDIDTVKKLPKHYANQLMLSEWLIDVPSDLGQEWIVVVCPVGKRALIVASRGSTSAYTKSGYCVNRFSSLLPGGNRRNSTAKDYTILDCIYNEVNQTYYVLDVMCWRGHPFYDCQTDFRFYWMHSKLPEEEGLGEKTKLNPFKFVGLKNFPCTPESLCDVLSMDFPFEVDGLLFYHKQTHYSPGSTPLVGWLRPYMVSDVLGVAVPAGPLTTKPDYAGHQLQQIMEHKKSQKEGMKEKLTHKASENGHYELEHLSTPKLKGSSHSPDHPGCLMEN
UniProt Q96KF7: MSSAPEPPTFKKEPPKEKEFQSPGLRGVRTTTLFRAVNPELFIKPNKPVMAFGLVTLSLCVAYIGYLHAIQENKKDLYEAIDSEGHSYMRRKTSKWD
UniProt Q96GM5, whole entry, looked up: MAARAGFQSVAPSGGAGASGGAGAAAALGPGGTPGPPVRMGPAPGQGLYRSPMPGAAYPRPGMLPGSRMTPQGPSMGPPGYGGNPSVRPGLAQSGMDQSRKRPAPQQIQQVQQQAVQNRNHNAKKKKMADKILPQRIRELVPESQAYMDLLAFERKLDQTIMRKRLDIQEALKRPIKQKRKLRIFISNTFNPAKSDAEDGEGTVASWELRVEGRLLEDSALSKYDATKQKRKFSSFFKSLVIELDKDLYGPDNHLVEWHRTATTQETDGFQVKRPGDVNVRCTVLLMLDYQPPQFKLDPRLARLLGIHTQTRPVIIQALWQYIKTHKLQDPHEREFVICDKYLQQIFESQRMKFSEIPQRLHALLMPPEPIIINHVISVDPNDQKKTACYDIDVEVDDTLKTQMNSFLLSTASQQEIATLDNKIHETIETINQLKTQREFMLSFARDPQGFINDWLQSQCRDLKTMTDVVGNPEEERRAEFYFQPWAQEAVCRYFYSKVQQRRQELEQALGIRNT
UniProt P57768: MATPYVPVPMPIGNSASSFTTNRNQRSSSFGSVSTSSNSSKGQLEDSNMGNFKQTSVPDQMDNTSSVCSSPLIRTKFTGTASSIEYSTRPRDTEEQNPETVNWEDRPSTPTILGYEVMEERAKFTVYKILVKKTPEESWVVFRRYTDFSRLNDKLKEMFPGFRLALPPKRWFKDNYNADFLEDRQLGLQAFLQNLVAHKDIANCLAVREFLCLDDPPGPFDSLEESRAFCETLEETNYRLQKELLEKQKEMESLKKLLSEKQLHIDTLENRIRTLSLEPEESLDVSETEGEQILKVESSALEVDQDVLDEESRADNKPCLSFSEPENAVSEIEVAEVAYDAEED
UniProt Q96EX1: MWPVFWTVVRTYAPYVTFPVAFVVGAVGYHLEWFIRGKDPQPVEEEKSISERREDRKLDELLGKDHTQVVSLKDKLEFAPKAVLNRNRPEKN
UniProt Q8N5G0: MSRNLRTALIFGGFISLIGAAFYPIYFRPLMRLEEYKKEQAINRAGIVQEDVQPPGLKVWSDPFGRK
UniProt P62308, whole entry, looked up: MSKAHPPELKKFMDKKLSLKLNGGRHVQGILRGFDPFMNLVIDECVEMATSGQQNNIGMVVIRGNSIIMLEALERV
UniProt O60749: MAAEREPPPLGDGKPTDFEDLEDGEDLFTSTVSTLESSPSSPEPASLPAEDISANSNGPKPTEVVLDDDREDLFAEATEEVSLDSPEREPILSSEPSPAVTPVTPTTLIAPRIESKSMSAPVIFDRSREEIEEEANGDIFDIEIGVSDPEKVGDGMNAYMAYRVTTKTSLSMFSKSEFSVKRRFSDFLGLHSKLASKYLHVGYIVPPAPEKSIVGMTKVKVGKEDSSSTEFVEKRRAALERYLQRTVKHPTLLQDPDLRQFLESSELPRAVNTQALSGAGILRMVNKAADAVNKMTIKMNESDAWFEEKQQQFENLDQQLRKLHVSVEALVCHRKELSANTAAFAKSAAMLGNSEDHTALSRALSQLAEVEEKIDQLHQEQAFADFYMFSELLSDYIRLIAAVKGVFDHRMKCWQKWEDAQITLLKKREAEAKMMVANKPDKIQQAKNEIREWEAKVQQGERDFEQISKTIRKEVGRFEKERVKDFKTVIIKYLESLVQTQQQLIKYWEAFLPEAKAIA

Compound in one test: NCC(=O)Nc1ccc(-n2nc(C(F)(F)F)cc2-c2ccc3c(ccc4ccccc43)c2)cc1
Briefly: log2 fold change, soluble protein after heating vs DMSO (PISA); higher = thermal stabilisation; K562 lysate, 10 uM; active = over 0.2 and 3.5 SD of the protein, either way, in both replicates (recomputed). The method, boiled down:
(§1)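 The values are log-two fold changes in thermal stability compared with solvent controls and come from duplicates. They were obtained by TMTpro 16plex LC-MS/MS, with channel sums equalised, on the supernatant after 21,000xg for 90 min. That supernatant came from crude K562 extract at 1 mg/mL protein treated with 10 μM compound for 30 min, heated for 3 min across 48°C-58°C, pooled and brought to 0.5% NP-40 at 4°C.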
In the case of SMARCE1 (UniProt Q969G3), the log2 fold change is inactive: 0.01.
Still for that read-out and setting: as for SNAPC5 (UniProt O75971), the figure is inactive: -0.057; as for SORD (UniProt Q00796), inactive: 0.
On the same count and under the same terms, in the case of SNW1 (UniProt Q13573) it was inactive: 0.011; in that of SMC2 (UniProt O95347), inactive: 0.014.
Consider SMG8 isoform 2 (UniProt Q8ND04), for which the log2 fold change was inactive: 0.027.
In the case of SMG5 (UniProt Q9UPR3), the log2 fold change was inactive: 0.04.
The same measure, in the same setting: in the case of SMS (UniProt P52788) it was inactive: -0.035; in that of SNCA (UniProt P37840), inactive: 0.069; in that of SNRPD2 (UniProt P62316), inactive: 0.
SNAPIN (UniProt O95295): the log2 fold change is inactive: -0.018.
On the same count and under the same terms, in the case of SMC5 (UniProt Q8IY18) it was inactive: 0.001; in that of SMC1A (UniProt Q14683), inactive: 0.01.
With SOAT1 (UniProt P35610), the log2 fold change is inactive: 0.014.

Compound in the next test: O=C(CCCCCCC(=O)Nc1ccccc1)NO [vorinostat]
Described as above. The method, boiled down: as §1
On to SOX7 isoform 2 (UniProt Q9BT81), for which the log2 fold change was inactive: -0.381.
On the same count and under the same terms, as for SMARCD2 (UniProt Q92925), the figure is inactive: -0.133; as for SNRNP200 (UniProt O75643), inactive: -0.021; as for SPARC (UniProt P09486), inactive: 0.149.
For the target SNTA1 (UniProt Q13424), the log2 fold change was inactive: 0.051.
Same read-out and setting: in the case of SNRPB isoform 3 (UniProt P14678) it was inactive: 0.126.
In the case of SNX6, A0A0A0MRI2, the log2 fold change is active: -0.325.
Regarding SNUPN (UniProt O95149), the log2 fold change is inactive: -0.037.
Regarding SPAG5 (UniProt Q96R06), the log2 fold change is active: -0.298.
The same measure, in the same setting: in the case of SMIM8 (UniProt Q96KF7) it was inactive: 0.092.
On the same count and under the same terms, in the case of SNRNP48 (UniProt Q6IEG0) it was inactive: 0.022; in that of SMARCD1 (UniProt Q96GM5), inactive: -0.159.
Turning to SNX16 (UniProt P57768), the log2 fold change is inactive: 0.009.
The same measure, in the same setting: in the case of SNX9 (UniProt Q9Y5X1) it was inactive: -0.055; in that of SMIM12 (UniProt Q96EX1), inactive: 0.174.
On the same count and under the same terms, in the case of SMIM20 isoform 2 (UniProt Q8N5G0) it was inactive: -0.006; in that of SP4 (UniProt Q02446), inactive: 0.234; in that of SNX8 (UniProt Q9Y5X2), inactive: 0.018.
Still for that read-out and setting: in the case of SMARCC1 (UniProt Q92922) it was inactive: -0.117.
Regarding SOS1 (UniProt Q07889), the log2 fold change is inactive: -0.057.
Still for that read-out and setting: in the case of SOX5 (UniProt P35711) it was inactive: -0.014; in that of SNRPG (UniProt P62308), inactive: 0.14.
SNX2 isoform 2 (UniProt O60749): the log2 fold change was inactive: 0.069.
On the same count and under the same terms, in the case of SMARCE1 (UniProt Q969G3) it was inactive: 0.007; in that of SORD (UniProt Q00796), inactive: 0.126; in that of SNW1 (UniProt Q13573), active: 0.224.
With SMC2 (UniProt O95347), the log2 fold change is active: -0.308.
As to SMG8 isoform 2 (UniProt Q8ND04), the log2 fold change is inactive: -0.166.
On the same count and under the same terms, as for SMG5 (UniProt Q9UPR3), the figure is active: -0.381; as for SMS (UniProt P52788), inactive: 0.066.
On the same count and under the same terms, in the case of SNCA (UniProt P37840) it was inactive: 0.161; in that of SNRPD2 (UniProt P62316), inactive: 0.147.
On to SNAPIN (UniProt O95295), for which the log2 fold change is inactive: 0.032.
Same read-out and setting: as for SMC5 (UniProt Q8IY18), the figure is inactive: -0.05.
SMC1A (UniProt Q14683): the log2 fold change is inactive: 0.052.
On the same count and under the same terms, as for SOAT1 (UniProt P35610), the figure is inactive: 0.005.
